# Measured values as given in PubChem BioAssay (NCATS).
# “And” between values parts separate entries of the source, which are not always exact repeats. Equal values may be shown once. This list was built around the results that the source calls inconclusive (neither active nor inactive); the mix of calls is not that of the screen. A call without a number means that no potency is given here. Potencies beside an inconclusive call are fits to weak or partial responses and may not hold up. The source made the active and inactive calls. The call rests on the fitted dose curve; in most records, active means well fitted inhibition curve with a large enough effect; inconclusive means small, poorly fitted or top-dose-only effect; inactive means no such curve, though single readings can be large or run the other way.
# Molecular target: Retinaldehyde dehydrogenase 3 (Homo sapiens) (UniProt P47895)
# Assay: qHTS for Inhibitors of the Aldehyde Dehydrogenase Family (ALDH1A3) Validation screen (AID 2061312); further: nearly all actives have a fitted effect of over 45% in size
# Details: ALDH1A3 enzyme inhibition qHTS validation, fluorescence; activity change, negative = inhibition: at 84.7 µM (top of the series)
# Potency means the concentration at half of the fitted maximal effect.
SMILES,Potency,"activity change, negative = inhibition"
CCn1c(=O)n([C@H]2CCCN(c3nccc(-c4cc5ccccc5o4)n3)C2)c2ccccc21,inactive,–
c1ccc(N2CCN(CCc3nn[nH]n3)CC2)cc1,"inconclusive: 7.94 µM [inhibitor, full curve, poor fit]",–
NC(N)=Nc1nc(CSCC/C(N)=N/S(N)(=O)=O)cs1,"inconclusive: 0.562 µM [inhibitor, full curve, poor fit]",–
CN[C@H](CC(=O)O)C(=O)O,inactive,–
CCCN(CCc1ccccc1)C1CCc2c(O)cccc2C1 (stereo not given),"inconclusive: 22.4 µM [inhibitor, partial curve, poor fit]",–
COc1c(N2CC3CCCNC3C2)c(F)cc2c(=O)c(C(=O)O)cn(C3CC3)c12 (stereo not given),"inconclusive: 31.6 µM [inhibitor, full curve, poor fit]",–
C(#Cc1cccc(CN2CCOCC2)c1)CCN1CCCCC1,active: 20 µM,–
Cc1nc2ccc(Oc3ccc(F)cc3)cc2c(=O)n1C[C@H]1CCCN(C(C)C)C1,"inconclusive: 89.1 µM [inhibitor, partial curve, poor fit]",–
CC1=NS(=O)(=O)c2cc(Cl)ccc2N1,inactive,–
CCC(CC)n1ccc2c(C(=O)NCc3c(C)cc(C)[nH]c3=O)cc(C#N)cc21,"inconclusive: 10 µM [inhibitor, full curve]",–
COc1ccc2c(c1)c(CC(=O)O)c(C)n2Cc1ccc(Cl)cc1,inactive,–
Cc1ccc(Cl)c(Nc2ccccc2C(=O)O)c1Cl,inactive,–
CC(C)NC[C@@H](O)c1ccc(O)c(O)c1,"inconclusive: 2.51 µM [inhibitor, full curve]",–
CC(C)S(=O)(=O)NC[C@H](C)c1ccc(-c2ccc(CCNS(C)(=O)=O)cc2)cc1,inactive,–
O=C1N=C(N2CCOCC2)CN1c1ccc(Cl)cc1,inactive,–
COc1ccccc1N1CCN(CC(C(=O)NC(C)(C)C)c2ccccc2)CC1 (stereo not given),inactive,–
COCC(c1ccc(C(F)(F)F)cc1)N1CCN(C2(C)CCN(C(=O)c3c(C)ncnc3C)CC2)CC1C (stereo not given),"inconclusive: 39.8 µM [inhibitor, partial curve, poor fit]",–
C[C@@]1(C2CCCC2)Cc2cc(OCC(=O)O)c(Cl)c(Cl)c2C1=O,inactive,–
c1cnc(N2CCN(Cc3ccc4c(c3)OCO4)CC2)nc1,"inconclusive: 0.501 µM [inhibitor, full curve, poor fit]",–
OC(CN1CCC(Cc2ccc(F)cc2)CC1)c1ccc(Cl)cc1 (stereo not given),inactive,–

SMILES,Potency,"activity change, negative = inhibition"
N#Cc1ccc(-c2ccc(S(=O)(=O)Nc3cccc(N)n3)cc2)cc1,"inconclusive: 10 µM [inhibitor, full curve, poor fit]",–
O=c1c2cccnc2n(-c2cccc([N+](=O)[O-])c2)c(=O)n1Cc1ccncc1,"inconclusive: 15.8 µM [inhibitor, partial curve, poor fit]",–
CCCCc1ncc(/C=C(\Cc2cccs2)C(=O)O)n1Cc1ccc(C(=O)O)cc1,"inconclusive: 3.98 µM [inhibitor, partial curve] and inconclusive: 11.2 µM [inhibitor, full curve, poor fit]",–
O=C(Nc1ccn(Cc2ccc(O)cc2C(F)(F)F)n1)c1c(F)cccc1F,inactive,–
Nc1nc(COC(=O)c2ccc([N+](=O)[O-])cc2)nc(Nc2ccccc2)n1,inactive,–
OC[C@H]1O[C@H](n2cnc3c(N[C@H]4CCC[C@@H]4O)ncnc32)[C@H](O)[C@@H]1O,inactive,–
NCCS(=O)(=O)O,inactive,–
CC(=O)N1CCN(NC(=O)c2ccc(F)cc2)CC1,–,inconclusive: -30.7% [inhibitor]
Cc1ccc([C@@H]2CC=C(C(=O)O)[C@H](c3ccc(C(C)(C)C)cc3)N2S(=O)(=O)c2ccc(C)cc2)cc1,"inconclusive: 7.08 µM [inhibitor, full curve, poor fit]",–
CC1(C)[C@H]2C[C@H](C/C=C\CCCC(=O)O)[C@@H](NC(=O)c3csc4ccc(O)cc34)[C@@H]1C2,inactive,–
N=c1nc(N2CCCCC2)cc(N)n1O,inactive,–
N#Cc1cccc(-c2nc(-c3cccnc3)no2)c1,"inconclusive: 3.55 µM [inhibitor, full curve, poor fit]",–
CCN(CC)CCNC(=O)c1ccc(NS(C)(=O)=O)cc1,"inconclusive: 14.1 µM [inhibitor, partial curve, poor fit]",–
CSC(=N)N,inactive,–
NS(=O)(=O)c1ccc(-n2nc(C(F)(F)F)cc2-c2ccc(Cl)cc2)cc1,"inconclusive: 44.7 µM [inhibitor, partial curve, poor fit]",–
Oc1cc2c(c(Cl)c1O)CCNCC2c1ccccc1 (stereo not given),"inconclusive: 11.2 µM [inhibitor, partial curve]",–
Nc1ccn([C@H]2CC[C@@H](CO)O2)c(=O)n1,inactive,–
Cc1nc2cc(-c3cc(F)cc(C#N)c3)ccc2s1,inactive,–
CCCCOc1cc(CC2CNC(=O)N2)ccc1OC (stereo not given),"inconclusive: 35.5 µM [inhibitor, single point]",–
CO[C@H]1C=CO[C@@]2(C)Oc3c(C)c(O)c4c(O)c(c5c(c4c3C2=O)NC2(CCN(CC(C)C)CC2)N=5)=NC(=O)C(C)=CC=C[C@H](C)[C@H](O)[C@@H](C)[C@@H](O)[C@@H](C)[C@H](OC(C)=O)[C@H]1C,inactive,–

# Looked up above.
# `NS(=O)(=O)c1ccc(-n2nc(C(F)(F)F)cc2-c2ccc(Cl)cc2)cc1` | Potency: inconclusive: 44.7 µM [inhibitor, partial curve, poor fit]
# `CCCCc1ncc(/C=C(\Cc2cccs2)C(=O)O)n1Cc1ccc(C(=O)O)cc1` | Potency: inconclusive: 3.98 µM [inhibitor, partial curve] and inconclusive: 11.2 µM [inhibitor, full curve, poor fit]
# `COc1ccc2c(c1)c(CC(=O)O)c(C)n2Cc1ccc(Cl)cc1` | Potency: inactive
